Record: PubChem BioAssay AID1224831 (NIAID, 2016)
Test: 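Genes that support or restrain LPS-induced TNF-alpha reporter activity in macrophage-like cells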 (follow-up of hits). Cell system: human THP-1 B5 monocytic leukaemia cells carrying a TNF promoter luciferase reporter, made macrophage-like with PMA. Reagent: single siRNA against human genes, 50 nM. Timing: about 68 h of knock-down, then 4 h LPS. Treatment: LPS (Salmonella minnesota, TLR-grade) at 10 ng/ml for 4 h; PMA 5 ng/ml present during knock-down. Detection: 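Firefly to renilla luciferase ratio of a TNF promoter reporter after 4 h LPS, scaled to plate median, turned into robust z-score, averaged over replicates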. Reading the numbers: TNF reporter z-score: higher = stronger LPS-induced TNF reporter signal; z-score, median over gene's siRNAs: higher = stronger TNF reporter signal across the gene's siRNAs. Call rule: 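Two-sided call: reduced or raised TNF reporter signal counts as active once mean z reaches about -1 or below, or about 1.5 or above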. Calls: active = changed TNF reporter (either direction); inactive = little change.
The deposit covers about 3,500 reagents; shown is a random part of them. Of all reagents, 731 (21%) got an active call. 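Active means either lowered or raised reporter signal; the gene-median score did not drive the per-siRNA calls.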 Reagents against one gene are numbered here.

DYNLT5 (dynein light chain Tctex-type family member 5) #1
- TNF reporter z-score, replicate mean: -0.22
- z-score, median over gene's siRNAs: -0.05
- Call: inactive

DYNLT5 (dynein light chain Tctex-type family member 5) #2
- TNF reporter z-score, replicate mean: -0.2
- z-score, median over gene's siRNAs: -0.05
- Call: inactive

DYNLT5 (dynein light chain Tctex-type family member 5) #3
- TNF reporter z-score, replicate mean: 0.12
- z-score, median over gene's siRNAs: -0.05
- Call: inactive

DYNLT5 (dynein light chain Tctex-type family member 5) #4
- TNF reporter z-score, replicate mean: 0.12
- z-score, median over gene's siRNAs: -0.05
- Call: inactive

DYNLT5 (dynein light chain Tctex-type family member 5) #5
- TNF reporter z-score, replicate mean: 0.1
- z-score, median over gene's siRNAs: -0.05
- Call: inactive

DYNLT5 (dynein light chain Tctex-type family member 5) #6
- TNF reporter z-score, replicate mean: -0.59
- z-score, median over gene's siRNAs: -0.05
- Call: inactive

ZFP2 (ZFP2 zinc finger protein) #1
- TNF reporter z-score, replicate mean: 1.04
- z-score, median over gene's siRNAs: 0.41
- Call: inactive

ZFP2 (ZFP2 zinc finger protein) #2
- TNF reporter z-score, replicate mean: -0.1
- z-score, median over gene's siRNAs: 0.41
- Call: inactive

ZFP2 (ZFP2 zinc finger protein) #3
- TNF reporter z-score, replicate mean: 1.1
- z-score, median over gene's siRNAs: 0.41
- Call: inactive

ZFP2 (ZFP2 zinc finger protein) #4
- TNF reporter z-score, replicate mean: 0.92
- z-score, median over gene's siRNAs: 0.41
- Call: inactive

ZFP2 (ZFP2 zinc finger protein) #5
- TNF reporter z-score, replicate mean: -0.23
- z-score, median over gene's siRNAs: 0.41
- Call: inactive

ZFP2 (ZFP2 zinc finger protein) #6
- TNF reporter z-score, replicate mean: -0.59
- z-score, median over gene's siRNAs: 0.41
- Call: inactive

CNMD (chondromodulin) #1
- TNF reporter z-score, replicate mean: -0.41
- z-score, median over gene's siRNAs: 0.35
- Call: inactive

CNMD (chondromodulin) #2
- TNF reporter z-score, replicate mean: 1.74
- z-score, median over gene's siRNAs: 0.35
- Call: active

CNMD (chondromodulin) #3
- TNF reporter z-score, replicate mean: 2.58
- z-score, median over gene's siRNAs: 0.35
- Call: active

CNMD (chondromodulin) #4
- TNF reporter z-score, replicate mean: 0.14
- z-score, median over gene's siRNAs: 0.35
- Call: inactive

CNMD (chondromodulin) #5
- TNF reporter z-score, replicate mean: 0.56
- z-score, median over gene's siRNAs: 0.35
- Call: inactive

CNMD (chondromodulin) #6
- TNF reporter z-score, replicate mean: 0.06
- z-score, median over gene's siRNAs: 0.35
- Call: inactive

IFNLR1 (interferon lambda receptor 1) #1
- TNF reporter z-score, replicate mean: 1.39
- z-score, median over gene's siRNAs: 0.95
- Call: inactive

IFNLR1 (interferon lambda receptor 1) #2
- TNF reporter z-score, replicate mean: 1.89
- z-score, median over gene's siRNAs: 0.95
- Call: active

IFNLR1 (interferon lambda receptor 1) #3
- TNF reporter z-score, replicate mean: 0.51
- z-score, median over gene's siRNAs: 0.95
- Call: inactive

IFNLR1 (interferon lambda receptor 1) #4
- TNF reporter z-score, replicate mean: -0.42
- z-score, median over gene's siRNAs: 0.95
- Call: inactive

IFNLR1 (interferon lambda receptor 1) #5
- TNF reporter z-score, replicate mean: 2.07
- z-score, median over gene's siRNAs: 0.95
- Call: active

IFNLR1 (interferon lambda receptor 1) #6
- TNF reporter z-score, replicate mean: -0.51
- z-score, median over gene's siRNAs: 0.95
- Call: inactive

GTF2IRD2B (GTF2I repeat domain containing 2B) #1
- TNF reporter z-score, replicate mean: 0.92
- z-score, median over gene's siRNAs: -0.24
- Call: inactive

GTF2IRD2B (GTF2I repeat domain containing 2B) #2
- TNF reporter z-score, replicate mean: -0.73
- z-score, median over gene's siRNAs: -0.24
- Call: inactive

GTF2IRD2B (GTF2I repeat domain containing 2B) #3
- TNF reporter z-score, replicate mean: 0.24
- z-score, median over gene's siRNAs: -0.24
- Call: inactive

GTF2IRD2B (GTF2I repeat domain containing 2B) #4
- TNF reporter z-score, replicate mean: 2.38
- z-score, median over gene's siRNAs: -0.24
- Call: active

GTF2IRD2B (GTF2I repeat domain containing 2B) #5
- TNF reporter z-score, replicate mean: -0.72
- z-score, median over gene's siRNAs: -0.24
- Call: inactive

GTF2IRD2B (GTF2I repeat domain containing 2B) #6
- TNF reporter z-score, replicate mean: -0.77
- z-score, median over gene's siRNAs: -0.24
- Call: inactive

8 neighbouring entries already listed:
DYNLT5 (dynein light chain Tctex-type family member 5) #1
- TNF reporter z-score, replicate mean: -0.22
- z-score, median over gene's siRNAs: -0.05
- Call: inactive

DYNLT5 (dynein light chain Tctex-type family member 5) #2
- TNF reporter z-score, replicate mean: -0.2
- z-score, median over gene's siRNAs: -0.05
- Call: inactive

DYNLT5 (dynein light chain Tctex-type family member 5) #3
- TNF reporter z-score, replicate mean: 0.12
- z-score, median over gene's siRNAs: -0.05
- Call: inactive

DYNLT5 (dynein light chain Tctex-type family member 5) #4
- TNF reporter z-score, replicate mean: 0.12
- z-score, median over gene's siRNAs: -0.05
- Call: inactive

DYNLT5 (dynein light chain Tctex-type family member 5) #5
- TNF reporter z-score, replicate mean: 0.1
- z-score, median over gene's siRNAs: -0.05
- Call: inactive

DYNLT5 (dynein light chain Tctex-type family member 5) #6
- TNF reporter z-score, replicate mean: -0.59
- z-score, median over gene's siRNAs: -0.05
- Call: inactive

ZFP2 (ZFP2 zinc finger protein) #1
- TNF reporter z-score, replicate mean: 1.04
- z-score, median over gene's siRNAs: 0.41
- Call: inactive

ZFP2 (ZFP2 zinc finger protein) #2
- TNF reporter z-score, replicate mean: -0.1
- z-score, median over gene's siRNAs: 0.41
- Call: inactive

The results go on:
CNR2 (cannabinoid receptor 2) #1
- TNF reporter z-score, replicate mean: 0.58
- z-score, median over gene's siRNAs: 0.47
- Call: inactive

CNR2 (cannabinoid receptor 2) #2
- TNF reporter z-score, replicate mean: -0.59
- z-score, median over gene's siRNAs: 0.47
- Call: inactive

CNR2 (cannabinoid receptor 2) #3
- TNF reporter z-score, replicate mean: 1.02
- z-score, median over gene's siRNAs: 0.47
- Call: inactive

CNR2 (cannabinoid receptor 2) #4
- TNF reporter z-score, replicate mean: 0.36
- z-score, median over gene's siRNAs: 0.47
- Call: inactive

CNR2 (cannabinoid receptor 2) #5
- TNF reporter z-score, replicate mean: -0.92
- z-score, median over gene's siRNAs: 0.47
- Call: inactive

CNR2 (cannabinoid receptor 2) #6
- TNF reporter z-score, replicate mean: 4.46
- z-score, median over gene's siRNAs: 0.47
- Call: active

TYMSOS (TYMS opposite strand RNA) #1
- TNF reporter z-score, replicate mean: -1.04
- z-score, median over gene's siRNAs: -0.545
- Call: active

TYMSOS (TYMS opposite strand RNA) #2
- TNF reporter z-score, replicate mean: -1.43
- z-score, median over gene's siRNAs: -0.545
- Call: active

TYMSOS (TYMS opposite strand RNA) #3
- TNF reporter z-score, replicate mean: -0.01
- z-score, median over gene's siRNAs: -0.545
- Call: inactive

TYMSOS (TYMS opposite strand RNA) #4
- TNF reporter z-score, replicate mean: -1.44
- z-score, median over gene's siRNAs: -0.545
- Call: active

TYMSOS (TYMS opposite strand RNA) #5
- TNF reporter z-score, replicate mean: 0.38
- z-score, median over gene's siRNAs: -0.545
- Call: inactive

TYMSOS (TYMS opposite strand RNA) #6
- TNF reporter z-score, replicate mean: -0.05
- z-score, median over gene's siRNAs: -0.545
- Call: inactive

PXN (paxillin) #1
- TNF reporter z-score, replicate mean: 0.41
- z-score, median over gene's siRNAs: 0.04
- Call: inactive

PXN (paxillin) #2
- TNF reporter z-score, replicate mean: -0.14
- z-score, median over gene's siRNAs: 0.04
- Call: inactive

PXN (paxillin) #3
- TNF reporter z-score, replicate mean: 0.22
- z-score, median over gene's siRNAs: 0.04
- Call: inactive

PXN (paxillin) #4
- TNF reporter z-score, replicate mean: 2.67
- z-score, median over gene's siRNAs: 0.04
- Call: active

PXN (paxillin) #5
- TNF reporter z-score, replicate mean: -0.33
- z-score, median over gene's siRNAs: 0.04
- Call: inactive

PXN (paxillin) #6
- TNF reporter z-score, replicate mean: -1.42
- z-score, median over gene's siRNAs: 0.04
- Call: active

RASA4 (RAS p21 protein activator 4) #1
- TNF reporter z-score, replicate mean: -0.28
- z-score, median over gene's siRNAs: 0.59
- Call: inactive

RASA4 (RAS p21 protein activator 4) #2
- TNF reporter z-score, replicate mean: 0.41
- z-score, median over gene's siRNAs: 0.59
- Call: inactive

RASA4 (RAS p21 protein activator 4) #3
- TNF reporter z-score, replicate mean: 0.77
- z-score, median over gene's siRNAs: 0.59
- Call: inactive

RASA4 (RAS p21 protein activator 4) #4
- TNF reporter z-score, replicate mean: 1.36
- z-score, median over gene's siRNAs: 0.59
- Call: inactive

RASA4 (RAS p21 protein activator 4) #5
- TNF reporter z-score, replicate mean: -0.53
- z-score, median over gene's siRNAs: 0.59
- Call: inactive

RASA4 (RAS p21 protein activator 4) #6
- TNF reporter z-score, replicate mean: 1.11
- z-score, median over gene's siRNAs: 0.59
- Call: inactive
